According to PMC3510188:
No constants are given. Whether binding was seen depends on the method and setting. Binding seen in cells or lysates may run through a third protein. A result given as binding can be weak or reduced; the word gives no strength.

Chains of the proteins cited; added tags and fusions are not shown. Lines headed by an entry give the natural chain unless they say otherwise; changes in a name come on top.
UniProt Q86VP1: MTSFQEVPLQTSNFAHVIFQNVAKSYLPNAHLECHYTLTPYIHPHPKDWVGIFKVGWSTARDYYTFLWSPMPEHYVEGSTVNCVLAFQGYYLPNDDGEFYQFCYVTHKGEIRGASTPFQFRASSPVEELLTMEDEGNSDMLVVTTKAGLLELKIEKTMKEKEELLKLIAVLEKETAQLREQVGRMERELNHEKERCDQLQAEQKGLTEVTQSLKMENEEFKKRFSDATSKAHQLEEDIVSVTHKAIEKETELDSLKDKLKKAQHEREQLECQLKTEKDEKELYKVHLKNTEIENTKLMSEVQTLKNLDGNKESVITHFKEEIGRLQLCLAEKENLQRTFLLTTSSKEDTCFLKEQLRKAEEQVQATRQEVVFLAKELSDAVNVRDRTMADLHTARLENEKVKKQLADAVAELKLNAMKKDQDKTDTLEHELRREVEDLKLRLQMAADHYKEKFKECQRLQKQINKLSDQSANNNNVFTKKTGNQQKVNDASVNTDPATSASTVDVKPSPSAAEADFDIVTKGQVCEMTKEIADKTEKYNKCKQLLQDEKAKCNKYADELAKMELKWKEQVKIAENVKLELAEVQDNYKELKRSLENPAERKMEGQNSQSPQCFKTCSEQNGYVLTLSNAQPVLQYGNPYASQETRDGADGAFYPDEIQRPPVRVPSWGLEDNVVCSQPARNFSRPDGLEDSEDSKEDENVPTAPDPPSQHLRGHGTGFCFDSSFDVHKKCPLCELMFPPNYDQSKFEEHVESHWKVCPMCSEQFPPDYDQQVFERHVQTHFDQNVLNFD
UniProt Q9UHD2: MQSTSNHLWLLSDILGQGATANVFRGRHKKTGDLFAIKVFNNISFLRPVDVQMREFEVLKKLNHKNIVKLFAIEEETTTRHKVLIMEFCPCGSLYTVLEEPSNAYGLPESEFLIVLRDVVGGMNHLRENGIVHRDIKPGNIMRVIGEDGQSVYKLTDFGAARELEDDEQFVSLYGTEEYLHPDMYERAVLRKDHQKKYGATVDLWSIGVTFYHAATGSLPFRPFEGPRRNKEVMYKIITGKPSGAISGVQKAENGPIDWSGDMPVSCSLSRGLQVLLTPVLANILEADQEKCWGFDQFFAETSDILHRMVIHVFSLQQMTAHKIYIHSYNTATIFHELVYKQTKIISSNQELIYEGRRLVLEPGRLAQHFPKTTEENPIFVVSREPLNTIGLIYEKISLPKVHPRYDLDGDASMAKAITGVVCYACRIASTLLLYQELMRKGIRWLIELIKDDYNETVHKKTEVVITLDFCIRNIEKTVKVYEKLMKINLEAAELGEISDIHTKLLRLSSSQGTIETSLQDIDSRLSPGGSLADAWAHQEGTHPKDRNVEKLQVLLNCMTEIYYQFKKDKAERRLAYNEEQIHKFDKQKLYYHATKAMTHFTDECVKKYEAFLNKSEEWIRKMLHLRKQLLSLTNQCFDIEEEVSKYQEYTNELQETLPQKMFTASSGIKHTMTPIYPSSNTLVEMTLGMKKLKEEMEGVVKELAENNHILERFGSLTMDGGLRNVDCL

Biological target: myc-TAX1BP1 (human) (UniProt Q86VP1)
Experiment: co-IP; 293FT cells 48 h after transfection with pcDNA 3.1 myc-Tax1bp1 or pcDNA 3.1 myc-His, lysed in IGEPAL IP buffer; immunoprecipitation for 4 hours with anti-myc magnetic beads, three washes in lysis buffer; blots

binding: binds
Substance: TBK1 (TANK-binding kinase 1) (from UniProt Q9UHD2 1-729)
